According to paper PMC11585589:

Molecular target: T1, Δ14-ARFRP1 Q79L fused to the Gal4 DNA-binding domain (human) (UniProt Q13795)
T1 sequence: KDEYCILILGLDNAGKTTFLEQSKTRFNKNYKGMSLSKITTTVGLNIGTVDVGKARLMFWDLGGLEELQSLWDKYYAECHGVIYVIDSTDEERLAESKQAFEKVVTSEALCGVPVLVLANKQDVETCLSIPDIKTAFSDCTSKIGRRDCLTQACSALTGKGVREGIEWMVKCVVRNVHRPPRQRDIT
Experiment: two-hybrid; yeast AH109; ARL variants without the N-terminal helix on Gal4 BD (pGBKT7), ARMH3, PI4KB or T-Ag on Gal4 AD; growth on -His with 3 mM 3AT

ARMH3 fused to the Gal4 transcriptional activation domain (pGAD-T7-ARMH3) (human)
binding: no binding

Results are given in words; binding and its absence hold for the method and conditions named. Tags and fused reporters may be left off the sequences shown.
